Assay results: PubChem BioAssay AID2662 (National Center for Advancing Translational Sciences (NCATS), 2010)
The campaign covered roughly 290,000 compounds. About 110 (0.038%) were called active. Inconclusive means that the source gave no clear call. Such entries were picked first, then a sample of the others. Calls follow the shape of the dose curve; as a rule, active = well fitted inhibition curve with a large enough effect in the polarisation, with a control signal flat (not every such curve was filed as active); inconclusive = small, poorly fitted or top-dose-only effect, or effect the other way, or a change in a side signal; inactive = no such curve, though single readings can be large or run the other way; the % refers to the polarisation. Potencies beside an inconclusive call are fits to weak or partial responses and may not hold up. A note “side channel” means that the fit belongs to a control or component signal, not to the main read-out.

The chains behind the UniProt entries cited, without tags or fusion partners.
UniProt Q03164, whole entry, looked up: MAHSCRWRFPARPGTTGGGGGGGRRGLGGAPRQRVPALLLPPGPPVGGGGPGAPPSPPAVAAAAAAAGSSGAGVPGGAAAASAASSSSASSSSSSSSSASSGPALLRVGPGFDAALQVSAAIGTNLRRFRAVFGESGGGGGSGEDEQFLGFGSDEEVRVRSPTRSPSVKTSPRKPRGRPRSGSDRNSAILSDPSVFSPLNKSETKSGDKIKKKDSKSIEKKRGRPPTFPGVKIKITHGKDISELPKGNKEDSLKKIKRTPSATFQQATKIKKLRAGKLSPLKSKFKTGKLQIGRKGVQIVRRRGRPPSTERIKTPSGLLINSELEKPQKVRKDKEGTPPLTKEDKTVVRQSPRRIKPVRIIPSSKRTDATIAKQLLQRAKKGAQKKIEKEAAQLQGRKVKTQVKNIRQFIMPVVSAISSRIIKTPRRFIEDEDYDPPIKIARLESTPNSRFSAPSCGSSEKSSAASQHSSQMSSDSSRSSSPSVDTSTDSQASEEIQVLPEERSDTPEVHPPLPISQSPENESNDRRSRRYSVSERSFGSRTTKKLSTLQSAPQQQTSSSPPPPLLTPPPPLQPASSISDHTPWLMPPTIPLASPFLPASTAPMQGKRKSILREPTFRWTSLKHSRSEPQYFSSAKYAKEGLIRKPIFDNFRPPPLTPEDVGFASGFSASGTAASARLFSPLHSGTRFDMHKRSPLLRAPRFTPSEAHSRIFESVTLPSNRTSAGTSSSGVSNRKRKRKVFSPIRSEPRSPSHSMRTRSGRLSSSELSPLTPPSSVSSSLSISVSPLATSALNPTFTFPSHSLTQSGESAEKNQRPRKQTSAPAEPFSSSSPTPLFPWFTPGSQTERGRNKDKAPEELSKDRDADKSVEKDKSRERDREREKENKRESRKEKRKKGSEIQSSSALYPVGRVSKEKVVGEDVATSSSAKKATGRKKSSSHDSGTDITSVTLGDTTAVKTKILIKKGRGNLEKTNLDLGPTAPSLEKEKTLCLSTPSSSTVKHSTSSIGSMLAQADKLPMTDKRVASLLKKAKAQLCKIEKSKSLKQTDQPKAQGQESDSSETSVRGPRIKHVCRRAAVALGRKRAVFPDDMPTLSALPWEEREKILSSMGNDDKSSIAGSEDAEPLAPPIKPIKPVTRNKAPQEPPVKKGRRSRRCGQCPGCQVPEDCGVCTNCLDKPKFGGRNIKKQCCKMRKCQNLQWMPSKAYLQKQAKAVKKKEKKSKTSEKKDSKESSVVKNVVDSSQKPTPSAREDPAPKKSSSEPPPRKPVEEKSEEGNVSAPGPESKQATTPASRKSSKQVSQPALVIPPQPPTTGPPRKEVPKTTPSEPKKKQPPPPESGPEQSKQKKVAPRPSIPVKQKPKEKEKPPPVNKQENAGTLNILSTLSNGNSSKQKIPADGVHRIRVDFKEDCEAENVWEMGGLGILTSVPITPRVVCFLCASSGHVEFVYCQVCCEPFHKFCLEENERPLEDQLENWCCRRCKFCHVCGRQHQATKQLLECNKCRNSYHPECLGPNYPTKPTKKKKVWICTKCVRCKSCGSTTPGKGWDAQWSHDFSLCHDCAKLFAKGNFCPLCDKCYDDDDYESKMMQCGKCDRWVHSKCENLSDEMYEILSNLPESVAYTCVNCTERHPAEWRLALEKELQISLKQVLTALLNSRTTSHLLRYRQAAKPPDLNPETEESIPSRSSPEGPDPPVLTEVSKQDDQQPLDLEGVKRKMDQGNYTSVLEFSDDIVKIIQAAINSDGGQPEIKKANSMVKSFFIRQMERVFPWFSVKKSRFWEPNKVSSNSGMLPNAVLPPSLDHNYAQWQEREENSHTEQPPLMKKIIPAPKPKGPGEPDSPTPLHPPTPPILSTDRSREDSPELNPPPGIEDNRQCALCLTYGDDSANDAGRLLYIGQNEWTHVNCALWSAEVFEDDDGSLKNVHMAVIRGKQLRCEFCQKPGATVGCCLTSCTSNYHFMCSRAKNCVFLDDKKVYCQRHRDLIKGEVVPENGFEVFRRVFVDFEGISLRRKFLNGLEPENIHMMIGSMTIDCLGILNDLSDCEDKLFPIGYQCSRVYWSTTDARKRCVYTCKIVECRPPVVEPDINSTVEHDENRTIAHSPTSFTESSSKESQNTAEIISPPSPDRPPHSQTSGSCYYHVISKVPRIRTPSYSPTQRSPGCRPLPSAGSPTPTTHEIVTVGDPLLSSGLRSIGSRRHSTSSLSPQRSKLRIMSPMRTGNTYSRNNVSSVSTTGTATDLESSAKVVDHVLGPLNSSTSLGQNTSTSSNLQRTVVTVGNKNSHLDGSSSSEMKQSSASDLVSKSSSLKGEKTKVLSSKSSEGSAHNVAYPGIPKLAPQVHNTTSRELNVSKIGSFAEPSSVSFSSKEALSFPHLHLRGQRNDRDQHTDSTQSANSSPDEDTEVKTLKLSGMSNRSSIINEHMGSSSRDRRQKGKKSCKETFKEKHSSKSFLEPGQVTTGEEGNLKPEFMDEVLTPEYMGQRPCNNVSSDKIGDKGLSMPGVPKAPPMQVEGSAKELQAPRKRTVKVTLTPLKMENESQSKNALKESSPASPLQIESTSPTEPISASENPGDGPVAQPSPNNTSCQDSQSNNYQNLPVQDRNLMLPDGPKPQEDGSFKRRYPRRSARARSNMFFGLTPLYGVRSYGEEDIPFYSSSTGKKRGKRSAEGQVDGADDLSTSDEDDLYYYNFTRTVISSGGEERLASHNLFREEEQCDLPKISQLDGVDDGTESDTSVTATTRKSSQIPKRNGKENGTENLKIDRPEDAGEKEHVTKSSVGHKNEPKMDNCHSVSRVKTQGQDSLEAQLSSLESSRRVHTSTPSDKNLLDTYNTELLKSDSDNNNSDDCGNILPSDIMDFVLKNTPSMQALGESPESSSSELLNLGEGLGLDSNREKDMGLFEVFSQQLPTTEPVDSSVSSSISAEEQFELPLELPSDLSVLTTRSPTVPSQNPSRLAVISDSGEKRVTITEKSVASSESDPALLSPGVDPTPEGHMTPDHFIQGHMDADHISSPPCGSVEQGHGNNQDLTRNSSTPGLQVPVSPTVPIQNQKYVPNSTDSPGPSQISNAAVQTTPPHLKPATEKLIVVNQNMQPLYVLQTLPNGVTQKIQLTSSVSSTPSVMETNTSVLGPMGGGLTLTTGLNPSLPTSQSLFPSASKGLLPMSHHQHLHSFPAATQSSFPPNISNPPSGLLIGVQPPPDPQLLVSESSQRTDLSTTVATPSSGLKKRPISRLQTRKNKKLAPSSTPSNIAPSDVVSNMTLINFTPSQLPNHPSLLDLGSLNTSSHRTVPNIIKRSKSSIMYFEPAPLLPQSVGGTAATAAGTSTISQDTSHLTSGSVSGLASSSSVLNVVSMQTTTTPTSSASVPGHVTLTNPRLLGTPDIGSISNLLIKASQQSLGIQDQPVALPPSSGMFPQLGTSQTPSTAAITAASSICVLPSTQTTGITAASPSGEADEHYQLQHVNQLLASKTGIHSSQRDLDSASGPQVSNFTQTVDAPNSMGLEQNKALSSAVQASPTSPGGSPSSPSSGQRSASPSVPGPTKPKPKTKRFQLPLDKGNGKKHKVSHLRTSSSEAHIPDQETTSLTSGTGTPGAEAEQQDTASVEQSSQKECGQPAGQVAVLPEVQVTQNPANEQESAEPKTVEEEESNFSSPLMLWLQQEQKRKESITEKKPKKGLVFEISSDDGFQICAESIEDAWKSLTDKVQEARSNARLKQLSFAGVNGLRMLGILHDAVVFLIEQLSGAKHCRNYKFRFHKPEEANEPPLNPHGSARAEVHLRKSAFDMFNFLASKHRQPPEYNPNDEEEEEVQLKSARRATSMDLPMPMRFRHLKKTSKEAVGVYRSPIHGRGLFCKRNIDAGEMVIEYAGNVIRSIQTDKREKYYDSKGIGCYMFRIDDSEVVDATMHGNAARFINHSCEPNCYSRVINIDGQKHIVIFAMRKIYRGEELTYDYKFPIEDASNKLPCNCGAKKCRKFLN

target: Histone-lysine N-methyltransferase 2A (Homo sapiens) (UniProt Q03164); assay: qHTS Fluorescence Polarization Assay for Inhibitors of MLL CXXC domain - DNA interaction; conditions: MLL-CXXC / FITC-HOXA9 DNA fluorescence polarization; activity change, negative = inhibition: at 115 µM (top of the series)
How it was run: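 Steps: dispense CXXC domain solution (7 uM) → pin compounds or unlabeled HOX-A9 DNA control → 5 min ambient → add FLSN-HOX-A9 solution (50 nM) → spin → 30 min ambient → fluorescence polarization. Tris pH 7.5/NaCl/DTT/BSA buffer.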
Potency is read from the fitted curve at half-maximal effect.

| Structure (SMILES) | Potency | activity change, negative = inhibition |
| --- | --- | --- |
| Oc1ccc(C=NC2CCCCC2)cc1 | inconclusive: 39.8 µM [inhibitor, single point] |  |
| CN1/C(=C\C=C(/C#N)C(=O)Nc2ccccc2F)C(C)(C)c2ccccc21 | inconclusive: 25.1 µM [fluorescent, side channel, partial curve] |  |
| Nc1ccc(C(=O)Nc2ccccc2N)cc1 | inconclusive: 89.1 µM [inhibitor, single point] |  |
| Cc1ccc(C)c(NS(=O)(=O)c2ccc(OCC(=O)NCc3ccccn3)cc2)c1 | inconclusive: 35.5 µM [quencher, side channel, single point] |  |
| Cc1ccc(C(=O)Nc2sc3c(c2C(=O)O)CCCCC3)o1 |  | inactive: -2.75% |
| O=C(NC(=S)Nc1cc(Cl)ccc1O)c1cccc(Br)c1 | inconclusive: 31.6 µM [fluorescent, side channel, single point] |  |
| CC1CCc2c(sc(NC(=O)c3cccs3)c2C(=O)O)C1 (centres undefined) | inconclusive: 31.6 µM [fluorescent, side channel, partial curve] |  |
| COc1ccc(OC)c(N=c2oc3cc(O)ccc3cc2C(N)=O)c1 |  | inactive: 24.2% |
| CC1CCN(C(=O)c2ccc(CS(=O)(=O)Cc3ccccc3)cc2)CC1 | inconclusive: 7.08 µM [fluorescent, side channel, single point] |  |
| O=C(O)c1cc(=O)c2c3nc4ccccc4oc-3cc(=O)c2[nH]1 |  | inactive: -11.8% |
| O=C(N/N=C/c1ccc(Br)cc1)c1ccccc1-n1cccc1 | inconclusive: 70.8 µM [inhibitor, single point] |  |
| CCn1cc(C(=O)NP(=O)(Nc2ccc(C)cc2)Nc2ccc(C)cc2)c2ccccc21 |  | inactive: 0.366% |
| COc1cc(N=c2ssnc2Cl)cc(OC)c1 |  | inactive: 10.4% |
| Nc1c(C(=O)C2CC2)sc2nc(-c3ccccc3)cc(C(F)(F)F)c12 | inconclusive: 28.2 µM [fluorescent, side channel, partial curve] |  |
| CCn1c(CNC(=O)c2ccccc2Br)nnc1SCC(=O)Nc1nncs1 | inconclusive: 11.2 µM [fluorescent, side channel, full curve] |  |
| N=c1ccn(Cc2ccc(Cl)c(Cl)c2)cc1 |  | inactive: -6.15% |
| C/C(=N/NC(=O)c1sc(=S)n(C)c1C)c1ccccc1 | inconclusive: 14.1 µM [inhibitor, single point] |  |
| CC(C)[C@H](NC(=O)c1ccccc1)C(=O)OCC(=O)N1CC2(C)CC1CC(C)(C)C2 (some centres undefined) | inconclusive: 11.2 µM [inhibitor, single point] |  |
| CCOC(=O)N1CCN(CC(O)c2c[nH]c3ccccc23)CC1 (centres undefined) | inconclusive: 39.8 µM [fluorescent, side channel, partial curve] |  |
| CCCCC(CC(C)O)c1n[nH]c(=S)n1-c1ccccc1 (centres undefined) | inconclusive: 5.62 µM [fluorescent, side channel, single point] |  |
| CC(C)(C)c1ccc(C(=O)Nc2cccc3c(=O)[nH][nH]c(=O)c23)cc1 | inconclusive: 44.7 µM [inhibitor, single point] |  |
| COc1cc(/C=C(\C#N)C(=O)NC(C)C)ccc1OCc1ccc(C(=O)O)cc1 | inconclusive: 3.98 µM [inhibitor, partial curve, poor fit] |  |

5 successive records out of the list so far, for reference:

| Structure (SMILES) | Potency | activity change, negative = inhibition |
| --- | --- | --- |
| CC(C)[C@H](NC(=O)c1ccccc1)C(=O)OCC(=O)N1CC2(C)CC1CC(C)(C)C2 (some centres undefined) | inconclusive: 11.2 µM [inhibitor, single point] |  |
| CCOC(=O)N1CCN(CC(O)c2c[nH]c3ccccc23)CC1 (centres undefined) | inconclusive: 39.8 µM [fluorescent, side channel, partial curve] |  |
| CCCCC(CC(C)O)c1n[nH]c(=S)n1-c1ccccc1 (centres undefined) | inconclusive: 5.62 µM [fluorescent, side channel, single point] |  |
| CC(C)(C)c1ccc(C(=O)Nc2cccc3c(=O)[nH][nH]c(=O)c23)cc1 | inconclusive: 44.7 µM [inhibitor, single point] |  |
| COc1cc(/C=C(\C#N)C(=O)NC(C)C)ccc1OCc1ccc(C(=O)O)cc1 | inconclusive: 3.98 µM [inhibitor, partial curve, poor fit] |  |

(more compounds)

| Structure (SMILES) | Potency | activity change, negative = inhibition |
| --- | --- | --- |
| O=C(COC(=O)c1ccccc1-c1nc2ccccc2s1)NC1CCS(=O)(=O)C1 (centres undefined) | inconclusive: 15.8 µM [inhibitor, single point] |  |
| C#C[C@]1(O)CC[C@H]2C3CCC4=Cc5oncc5CC4(C)C3CCC21C (some centres undefined) |  | inactive: 0.445% |
| COc1cccc(NC(=O)NCCCCc2ccccc2)c1 | inconclusive: 11.2 µM [fluorescent, side channel, single point] |  |
| CNC(=S)NNC(=O)Cc1ccc(OC)c(OC)c1 | inconclusive: 39.8 µM [fluorescent, side channel, partial curve] |  |
| COc1ccc(CNc2ncnc3c2[nH]c2cc(OC)c(OC)cc23)cc1 |  | inactive: -1.05% |
| FC(F)(F)c1cnc2c(c1)[nH]c(=S)n2-c1ccc(Cl)cc1 |  | inactive: 11.1% |
| C/C(=N/NC(=O)c1ccncc1)c1cc2ccc(O)cc2oc1=O | inconclusive: 1.58 µM [fluorescent, side channel, full curve] |  |
| CCOc1ccc2[nH]cc(-c3csc(N)n3)c2c1 | inconclusive: 8.91 µM [fluorescent, side channel, partial curve] |  |
| O=C1CNC(=S)N1Cc1ccccc1Cl | inconclusive: 31.6 µM [fluorescent, side channel, partial curve] |  |
| COC(=O)C1=C(C)N(Cc2ccccc2)C(=NCc2cc(OC)c(OC)c(OC)c2)N[C@H]1CCc1ccccc1 | inconclusive: 31.6 µM [quencher, side channel, partial curve] |  |
| Cc1ccc(NC(=O)C2CCCO2)cc1[N+](=O)[O-] (centres undefined) | inconclusive: 89.1 µM [inhibitor, single point] |  |
| C=C1CC2C3C=C(C)C4=CC(=O)CCC4(C)C3CCC2(C)[C@@]1(OC(C)=O)C(C)=O (some centres undefined) |  | inactive: 3.4% |
| CCOc1cc(/C=C2/SC(=S)N(CC3CCCO3)C2=O)ccc1O (centres undefined) | inconclusive: 25.1 µM [fluorescent, side channel, partial curve] |  |
| Cc1ccc(N2CN(Cc3ccco3)CNC2=S)c(C)c1 | inconclusive: 35.5 µM [fluorescent, side channel, single point] |  |
| CCOC(=O)CSC1=C(C#N)C(=O)NC(c2ccc(OC)cc2)S1 (centres undefined) | inconclusive: 89.1 µM [inhibitor, single point] |  |
| O=C(NCCc1ccc(Cl)cc1)c1ccc2c(c1)OCO2 | inconclusive: 14.1 µM [quencher, side channel, single point] |  |
| O=C(NCCc1csc(-c2cccnc2)n1)c1ccc(Br)o1 |  | inactive: -3.93% |
| CCOCCCNC(=O)c1cc2c(s1)-c1ccccc1SC2 |  | inactive: -4.84% |
| N=c1c2c(-c3ccccc3)c(-c3ccccc3)n(Cc3ccccc3)c2ncn1CCCn1ccnc1 |  | inactive: 83.3% |
| CCOc1ccc(C(C(=O)NC(C)(C)C)N(CCOC)C(=O)CCC(=O)Nc2ccccn2)cc1 (centres undefined) |  | inactive: -11.3% |
| Clc1ccc(-n2ncc3c(NCCCn4ccnc4)ncnc32)cc1 | inconclusive: 63.1 µM [quencher, side channel, single point] |  |
| C=C(C)COc1ccc(-c2[nH]ncc2Oc2ccc(OC)cc2)c(O)c1 | inconclusive: 35.5 µM [quencher, side channel, single point] |  |

| Structure (SMILES) | Potency | activity change, negative = inhibition |
| --- | --- | --- |
| COc1ccc(CCNC(=O)c2cn(C)c3ccc(S(=O)(=O)N4CCOCC4)cc3c2=O)cc1OC |  | inactive: -15.3% |
| Cc1cc(CN(C)C(=O)C2CCC(=O)N(CCc3cccc(F)c3)C2)on1 (centres undefined) | inconclusive: 14.1 µM [fluorescent, side channel, single point] |  |
| CCN(Cc1cc2cc(C)ccc2[nH]c1=O)C(=O)c1cccc([N+](=O)[O-])c1 | inconclusive: 70.8 µM [inhibitor, single point] |  |
| O=C(CN(C(=O)c1ccc(Cl)cc1)N1C(=O)C2C3C=CC(C3)C2C1=O)c1cccs1 (centres undefined) | inconclusive: 8.91 µM [inhibitor, single point] |  |
| CCC(=O)Nc1nc(-c2cc([N+](=O)[O-])cs2)cs1 |  | inactive: 1.16% |
| O=C(c1ccc(Cl)c([N+](=O)[O-])c1)N(Cc1cccc(Cl)c1)C1CCS(=O)(=O)C1 (centres undefined) |  | inactive: 0.269% |
| Cc1cccc(NC(=O)CC2(CC(=O)O)CCCC2)c1 | inconclusive: 5.01 µM [fluorescent, side channel, partial curve] |  |
| OCCOCCNc1ncnc2sc(-c3ccccc3)cc12 |  | inactive: 14.3% |
| C/C(Cc1ccccc1)=N\NC(=O)c1cccnc1 | inconclusive: 14.1 µM [inhibitor, single point] |  |
| O=C1/C(=C/c2cccnc2)SC(=S)N1C1CCS(=O)(=O)C1 (centres undefined) |  | inactive: -1.31% |
| N#C/C(=C\N1CCN(Cc2ccc3c(c2)OCO3)CC1)c1nc2ccccc2s1 | inconclusive: 35.5 µM [fluorescent, side channel, partial curve] |  |
| O=C(NC1CC1)C1=C[C@@H](c2c[nH]c3ccccc23)C[C@@H](OCc2ccc(CO)cc2)O1 | inconclusive: 14.1 µM [fluorescent, side channel, single point] |  |
| COc1ccc(NC(=O)CSc2nnc(Cc3cccn3C)n2CCc2ccccc2)c(OC)c1 |  | inactive: 3.46% |
| O=C(O)c1ccc(NS(=O)(=O)/C=C/c2ccccc2)cc1 | inconclusive: 35.5 µM [inhibitor, partial curve] |  |
| O=C(CN1CCOCC1)Nc1ncc(Cc2cccc(Cl)c2Cl)s1 | inconclusive: 35.5 µM [fluorescent, side channel, single point] |  |
| N#C/C(=C/c1ccc(N2CCOCC2)o1)C(=O)Nc1ccccc1 | inconclusive: 3.16 µM [fluorescent, side channel, full curve] |  |
| CN1CCc2cccc3c2C1Cc1ccc(O)c(O)c1-3 (centres undefined) | inconclusive: 44.7 µM [quencher, side channel, single point] |  |
| CCN(CC)CCNC(=O)c1ccc2c(c1NCCO)C(=O)c1ccccc1C2=O | inconclusive: 39.8 µM [quencher, side channel, partial curve] |  |
| CC(C)(C)NC(=O)CN1CCC(NC(=O)C23CC4CC(CC(C4)C2)C3)CC1 | inconclusive: 11.2 µM [fluorescent, side channel, full curve] |  |
| COc1cc(/C=N/NC(=O)CN2CCCCC2)ccc1OCc1ccc(Br)cc1 | inconclusive: 14.1 µM [fluorescent, side channel, single point] |  |
